PubChem BioAssay AID1671195 | Yale University | 2021
Purpose: 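Knockdowns that increase or decrease uptake of fluorescent LDL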 (primary screen). Cells: human Huh7 hepatoma cells. Reagents: siRNA pool against human genes, 18 nM. Timing: about 2 to 2.5 days of knockdown, then 8 h LDL uptake. Conditions: DiI-labelled LDL at 30 µg/ml for 8 h, in lipoprotein-deficient serum medium. Measurement: 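Per-cell DiI-LDL intensity by automated imaging; well means scaled to the plate median and given as a robust z-score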. Reading the numbers: robust z-score: higher = more LDL uptake after knockdown. Active means: 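Active when two or more replicates show a robust z-score above 2 or below -2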.
The deposit covers about 22,000 reagents; shown is a random part of them. About 1,510 of all reagents (6.9%) count as active. 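Active includes knockdowns raising or lowering LDL uptake; positive z-scores mean more uptake, negative mean less.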 Reagent sequences are not shown.

gene symbol | robust z-score, replicate 1 | robust z-score, replicate 2 | robust z-score, replicate 3 | outcome
MAP7D2 (MAP7 domain containing 2) | -0.892 | -0.544 | -0.619 | inactive
RPL10A (ribosomal protein L10a) | -1.45 | -1.75 | -1.45 | inactive
HJV (hemojuvelin BMP co-receptor) | 0.342 | 2.79 | 0.969 | inactive
BNC2 (basonuclin zinc finger protein 2) | 0.934 | 0.424 | 1.2 | inactive
PTEN (phosphatase and tensin homolog) | 1.81 | 2.04 | 1.79 | inactive
TXNIP (thioredoxin interacting protein) | 0.119 | -0.619 | 1.22 | inactive
MFSD6L (major facilitator superfamily domain containing 6 like) | -0.373 | 1.13 | -0.255 | inactive
ERBB2 (erb-b2 receptor tyrosine kinase 2) | -0.0475 | -0.409 | -0.648 | inactive
GFOD2 (Gfo/Idh/MocA-like oxidoreductase domain containing 2) | -1.02 | -1.13 | -0.253 | inactive
GJB7 (gap junction protein beta 7) | 0.606 | 0.546 | 0.941 | inactive
LOC138972 (retired record) | 3.47 | 3.16 | 2.44 | active
UBE4A (ubiquitination factor E4A) | -0.44 | -0.752 | -0.999 | inactive
B9D1 (B9 domain containing 1) | 0.00421 | 0.85 | -0.237 | inactive
LOC387946 (retired record) | -1.57 | -1.32 | -1.37 | inactive
CNN1 (calponin 1) | -0.559 | 0.0652 | -0.203 | inactive
IL36RN (interleukin 36 receptor antagonist) | -1.05 | -0.22 | -0.573 | inactive
LZTS2 (leucine zipper tumor suppressor 2) | -1.06 | -1.12 | -1.11 | inactive
TTC41P (tetratricopeptide repeat domain 41, pseudogene) | -0.495 | -0.214 | -0.269 | inactive
BAAT (bile acid-CoA:amino acid N-acyltransferase) | 0.65 | 0.711 | 0.692 | inactive
FGF3 (fibroblast growth factor 3) | -0.982 | 0.179 | -0.313 | inactive
ARHGAP26 (Rho GTPase activating protein 26) | 0.915 | 0.991 | 0.916 | inactive
RPL23 (ribosomal protein L23) | -0.718 | -1.09 | -0.238 | inactive
VAMP3 (vesicle associated membrane protein 3) | 1.87 | -0.594 | 0.403 | inactive
GCH1 (GTP cyclohydrolase 1) | 1.46 | 1.04 | 1.75 | inactive
LOC402157 (retired record) | 0.323 | 0.796 | 0.705 | inactive
LOC442274 (retired record) | 2.17 | 2.5 | 2.34 | active
ROR2 (ROR family WNT receptor 2) | 0.832 | 0.778 | 0.565 | inactive
IFNA1 (interferon alpha 1) | 1.14 | 1.79 | 0.895 | inactive
PRRT1 (proline rich transmembrane protein 1) | 0.491 | 0.359 | 0.327 | inactive
PISD (phosphatidylserine decarboxylase) | 1.64 | 0.876 | 1.24 | inactive
FGFR4 (fibroblast growth factor receptor 4) | -0.129 | -1.11 | -1.28 | inactive
LOC441786 (retired record) | -0.671 | -0.314 | 0.136 | inactive
INVS (inversin) | -2.2 | 1.09 | -0.274 | inactive
MCRS1 (microspherule protein 1) | 0.256 | 2.56 | -0.108 | inactive
TPCN2 (two pore segment channel 2) | 0.0989 | -0.251 | 0.0269 | inactive
NRROS (negative regulator of reactive oxygen species) | -0.7 | -0.673 | -0.847 | inactive
JOSD2 (Josephin domain containing 2) | -0.578 | -0.752 | 0.113 | inactive
PKIB (cAMP-dependent protein kinase inhibitor beta) | -0.727 | -1.22 | -1.1 | inactive
DLEU7 (deleted in lymphocytic leukemia 7) | -0.182 | -0.824 | -0.489 | inactive
LOC401887 (retired record) | 0.256 | 0.0859 | -0.0753 | inactive
TBC1D9B (TBC1 domain family member 9B) | 1.33 | -0.669 | 1.37 | inactive
HLA-F-AS1 (HLA-F antisense RNA 1) | -0.337 | -0.202 | 0.0923 | inactive
CELA1 (chymotrypsin like elastase 1) | 1.06 | 1.07 | 0.496 | inactive
CCRL2 (C-C motif chemokine receptor like 2) | -0.363 | -0.409 | -0.469 | inactive

Just “robust z-score, replicate 1”, for 5 of the entries above:
LOC402157 (retired record) = 0.323
LOC442274 (retired record) = 2.17
ROR2 (ROR family WNT receptor 2) = 0.832
IFNA1 (interferon alpha 1) = 1.14
PRRT1 (proline rich transmembrane protein 1) = 0.491

The list goes on:
gene symbol | robust z-score, replicate 1 | robust z-score, replicate 2 | robust z-score, replicate 3 | outcome
LSM3 | -0.397 | -0.342 | -0.209 | inactive
SYNJ2BP (synaptojanin 2 binding protein) | -0.25 | -0.62 | -0.295 | inactive
GARNL3 (GTPase activating Rap/RanGAP domain like 3) | 0.945 | 0.109 | -0.765 | inactive
LOC440939 (retired record) | -0.375 | -0.613 | -0.583 | inactive
PIH1D2 (PIH1 domain containing 2) | -0.62 | -0.661 | -1.43 | inactive
RIPK2 (receptor interacting serine/threonine kinase 2) | -0.245 | -0.713 | -0.534 | inactive
PHLDA2 (pleckstrin homology like domain family A member 2) | 0.487 | -1.22 | -0.422 | inactive
PDLIM2 (PDZ and LIM domain 2) | -0.751 | -0.395 | -1.32 | inactive
LOC388731 (retired record) | -1.2 | -1.28 | -1.72 | inactive
LOC401845 (retired record) | -1.26 | -0.652 | -0.524 | inactive
PGGT1B (protein geranylgeranyltransferase type I subunit beta) | -0.616 | -0.464 | -0.234 | inactive
SPDYE1 (speedy/RINGO cell cycle regulator family member E1) | 0.086 | 0.207 | 0.345 | inactive
HACD3 (3-hydroxyacyl-CoA dehydratase 3) | -0.891 | -1.68 | -1.27 | inactive
NSMCE2 (NSE2 SUMO ligase component of SMC5/6 complex) | -0.831 | -1.05 | -1.22 | inactive
BMP5 (bone morphogenetic protein 5) | -0.532 | -1.84 | -0.17 | inactive
LOC400768 (retired record) | 0.139 | 0.389 | 1.09 | inactive
INPP5A (inositol polyphosphate-5-phosphatase A) | -1.11 | -0.552 | -0.818 | inactive
THEMIS2 (thymocyte selection associated family member 2) | -0.708 | 0.13 | -1.34 | inactive
SYNDIG1 (synapse differentiation inducing 1) | 0.0347 | 0.449 | 0.167 | inactive
NCBP3 (nuclear cap binding subunit 3) | -2.04 | -1.53 | -2.49 | active
FGD3 (FYVE, RhoGEF and PH domain containing 3) | 0.768 | 2.21 | 1.24 | inactive
HSPB8 (heat shock protein family B (small) member 8) | -1.32 | -1.26 | -1.42 | inactive
RYK (receptor like tyrosine kinase) | 1.22 | 0.507 | 0.317 | inactive
POGK (pogo transposable element derived with KRAB domain) | -1.98 | -1.52 | -1.46 | inactive
